Measurements reported in patent US6579686B2, “Constitutive androstane receptor” (SmithKline Beecham Corporation, priority 2000, dated 2003).

Target: T1, mouse CAR (mCAR) (Mus musculus, UniProt O35627)
T1 sequence (O35627 1-358): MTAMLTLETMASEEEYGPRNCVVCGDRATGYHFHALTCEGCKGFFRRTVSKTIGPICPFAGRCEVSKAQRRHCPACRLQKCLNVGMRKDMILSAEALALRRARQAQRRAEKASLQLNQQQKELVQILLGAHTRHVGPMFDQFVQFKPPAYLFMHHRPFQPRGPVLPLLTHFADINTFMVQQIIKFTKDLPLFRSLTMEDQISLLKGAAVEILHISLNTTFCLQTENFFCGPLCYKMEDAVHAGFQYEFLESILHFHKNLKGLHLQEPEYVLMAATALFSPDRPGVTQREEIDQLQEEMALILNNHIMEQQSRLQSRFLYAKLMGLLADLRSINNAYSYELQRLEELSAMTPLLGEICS
Test: in vitro

Clc1ccccc1C(c1ccccc1)(c1ccccc1)n1ccnc1 [clotrimazole]
EC50: > 10 µM
